# This is one part of the list. These are further read-outs of the screen, such as a control signal, another cell line or another target. No call is given for them. Most of these compounds were active or inconclusive in the main read-out, so they are no random draw. Words in brackets tell the shape of the fitted curve; partial curves, single points and poor fits give uncertain potencies.
# Test: qHTS Assay for Modulators of Lamin A Splicing
# Conditions: HeLa LMNA splicing GFP/RFP minigene ratio, 48 h
# How it was run: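 S3 HeLa cells stably expressing lamin A-EGFP splicing minigene plus DsRed2, 600 cells/well, 48 h compound exposure at 37C. Laser-scanning cytometry; analysed as GFP (500-530 nm)/RFP (575-640 nm) total intensity ratio; 0.5% DMSO vehicle.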
# [1] = measured here: RFP viability control channel
# [2] = measured here: GFP splicing reporter channel
SMILES,AC50 [1],AC50 [2]
O=C(CSc1nc2ccccc2n1CC(=O)Nc1ccc(F)cc1F)Nc1ccc(F)cc1,"7.94 µM [falling, partial curve, poor fit]",–
CCn1c(C)cs/c1=N\C(=S)Nc1ccccc1C,"10 µM [rising, partial curve]",–
O=C(CCc1ccc(S(=O)(=O)NCc2ccccc2)cc1)N1CCN(Cc2ccc3c(c2)OCO3)CC1,"14.1 µM [rising, partial curve]","14.1 µM [rising, partial curve]"
C=CCOc1nc2c(c(=O)n(C)c(=O)n2C)n1Cc1ccccc1Cl,"11.2 µM [rising, partial curve]",–
COc1cccc(Cn2c(=O)c(-c3cccc(C#N)c3)nc3cnc(OC)nc32)c1,–,"11.2 µM [falling, partial curve]"
COc1cc(C=O)ccc1OCCCOc1ccccc1[N+](=O)[O-],"2.82 µM [rising, full curve, poor fit]",–
C=CCC1C=CCC(CC=C)N1C(=O)c1ccccc1[N+](=O)[O-] (centres undefined),"15.8 µM [rising, partial curve]","14.1 µM [rising, partial curve]"
Cc1nc(-c2ccc(F)cc2)sc1CCNC(=O)c1ccccc1,"0.708 µM [falling, full curve, poor fit]",–
O=C(c1csc2ccccc12)N1CCCCCC1,"12.6 µM [rising, single point]","14.1 µM [rising, single point]"
CC1CC(C)CN(C(=S)Nc2ccc3nc4n(c(=O)c3c2)CCCCC4)C1 (centres undefined),"15.8 µM [rising, single point]",–
O=C(O)c1ccc(COc2ccc3ccccc3c2/C=C2/NC(=O)N(c3ccccc3)C2=O)cc1,–,"35.5 µM [rising, single point]"
CCOC(=O)c1cnc(-n2nc(C)cc2C)nc1NCc1ccccc1,"7.08 µM [rising, full curve]","7.08 µM [rising, partial curve]"
N=c1n(Cc2ccccc2)c2ccccc2n1CC(O)c1ccccc1 (centres undefined),"14.1 µM [rising, partial curve, poor fit]","12.6 µM [rising, single point]"
O=C(O)COc1ccc2oc3ccccc3c2c1,"0.0126 µM [falling, full curve, poor fit]","0.0141 µM [falling, full curve, poor fit]"
CCOC(=O)c1c(C)oc2nc(C)nc(N3CCN(c4ccc(C)cc4C)CC3)c12,"1 µM [falling, full curve, poor fit]",–
Cc1nnc(C)n1N1C(=O)c2cccc3cccc(c23)C1=O,"5.01 µM [falling, full curve, poor fit]","3.55 µM [falling, full curve, poor fit]"
COc1ccc(C2=NOC(C(=O)NCc3ccc(F)cc3)C2)cc1OC (centres undefined),"7.94 µM [rising, partial curve]",–
CC1(C)O[C@@H]2C[C@H]3[C@@H]4CCC5=CC(=O)C=C[C@]5(C)[C@@]4(F)[C@@H](O)C[C@]3(C)[C@]2(C(=O)CO)O1,"10 µM [rising, single point]",–

SMILES,AC50 [1],AC50 [2]
CCN1c2ccccc2NC2N=C(OC)C(c3ccccc3)C21 (centres undefined),"35.5 µM [falling, single point]","35.5 µM [falling, single point]"
COc1cccc(-c2nccc(NCc3cccnc3)n2)c1,"14.1 µM [falling, partial curve]","11.2 µM [falling, partial curve]"
C[C@@H]([C@H](O)c1ccc(O)cc1)N1CCC(Cc2ccccc2)CC1,–,"1.12 µM [falling, partial curve, poor fit]"
COc1ccc(CC(=O)Nc2cccc(-c3nnc(-c4ccc(C)cc4)o3)c2)cc1OC,"6.31 µM [rising, single point]","3.98 µM [rising, single point]"
COc1cccc(N(C(=O)CCl)C(C(=O)NCCc2ccccc2)c2cccs2)c1 (centres undefined),"35.5 µM [falling, single point]","25.1 µM [falling, single point]"
Cc1ccc(C)n1-c1ncc(Br)cn1,–,"0.0398 µM [falling, full curve, poor fit]"
Cc1cccc(/C=c2\s/c(=C\C(=O)C(C)(C)C)[nH]c2=O)c1,–,"31.6 µM [rising, single point]"
COC(=O)CC(c1ccc(C(C)C)cc1)n1cccc1 (centres undefined),–,"0.0126 µM [rising, full curve, poor fit]"
Cc1ccc(Oc2cc(C)nc(-c3ccccc3O)n2)cc1,"14.1 µM [rising, single point]","15.8 µM [rising, single point]"
CCCCC(=O)N(Cc1ccc(-c2ccccc2-c2nn[nH]n2)cc1)C(C(=O)O)C(C)C (centres undefined),–,"0.126 µM [falling, single point]"
O=C1CC(c2ccccc2)CN1C(=O)c1cccc([N+](=O)[O-])c1 (centres undefined),"0.00447 µM [falling, full curve, poor fit]",–
COc1cccc(NC(=S)N(CCCN2CCOCC2)Cc2cn(C)c3ccccc23)c1,"22.4 µM [rising, single point]",–
Cc1nn(Cc2ccccc2)c(C)c1NC(=O)CSc1n[nH]c(C)c1[N+](=O)[O-],–,"0.178 µM [falling, full curve, poor fit]"
O=c1[nH]nc(SCc2ccccc2)c(=O)[nH]1,"12.6 µM [rising, partial curve]",–
CC(=O)c1c(C)cc(C)c(CSc2nc(C)cc(=O)[nH]2)c1C,"31.6 µM [rising, single point]",–
Fc1ccccc1-c1[nH]ncc1-c1nnnn1-c1ccccc1,"6.31 µM [rising, single point]","3.55 µM [rising, single point]"
CCOc1ccc(NC(=O)CNc2ccc(C)cc2Cl)cc1,"35.5 µM [rising, single point]",–
O=C(NCc1ccco1)c1ccc(COc2cc(Cl)ccc2Cl)cc1,"0.0126 µM [rising, full curve, poor fit]",–

# From PubChem BioAssay AID1487 (National Center for Advancing Translational Sciences (NCATS), 2009)
